PubChem BioAssay AID493014 (National Center for Advancing Translational Sciences (NCATS), 2011)
The list shows a part of the results. These are further read-outs of the screen, such as a control signal, another cell line or another target. No call is given for them. The list favours compounds with an active or inconclusive main result. Words in brackets tell the shape of the fitted curve; partial curves, single points and poor fits give uncertain potencies.

Experiment: qHTS Assay to Find Inhibitors of Chronic Active B-Cell Receptor Signaling
Details: ABC-DLBCL IkBa-CBG/CBR reporter, luminescence ratio (green luciferase fused to IkBa over red control in TMD8 lymphoma cells), 4 h
Summary of the method: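 TMD8 ABC-DLBCL cells carrying doxycycline-inducible green luciferase fused to IkappaBalpha plus unfused red luciferase were exposed to compounds (up to 46 uM) for 4 hrs at 37C. Activity came from the overlap-corrected green/red luminescence ratio.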

[1] = measured here: CBR red luminescence, cell number
[2] = measured here: IkBa-CBG green luminescence

With Cc1nnc(Sc2nc3c(c(=O)[nH]c(=O)n3C)n2CCCc2ccccc2)s1 the AC50 [1] was 14.6 µM [falling, partial curve].

For COc1ccc(/C=N/NC(=O)c2nn(-c3ccc(C)c(C)c3)c(=O)c3ccccc23)cc1, the AC50 [1] was 3.66 µM [rising, partial curve].

For N#Cc1cccc(Nc2ncnc3c2cnn3-c2cccc(Cl)c2)c1, the AC50 [1] was 2.51 µM [rising, partial curve, poor fit].

In the case of CC(C)NC(=O)c1cc(-c2ccc(Br)cc2)on1, the AC50 [1] is reported as 2.82 µM [falling, full curve].

With O=C1c2cccc3cccc(c23)C(=O)N1CC1CCN(CC(O)COc2ccc3ccccc3c2)CC1 (centres undefined) the AC50 [1] was 12.6 µM [falling, partial curve].

For COc1cc2c(cc1OC)CN(C(=O)CN1C(=O)NC3(CCCCC3C)C1=O)CC2 (centres undefined), the AC50 [1] was 0.00411 µM [rising, full curve, poor fit].

With CC1CCN(c2c(NCC3CCC(C(=O)NCCCc4ccccc4)CC3)c(=O)c2=O)CC1 (centres undefined) the AC50 [1] was 15.8 µM [rising, single point].

For CCOC(=O)c1sc(NC(=O)C2CC(=O)N(c3ccc(OCC)cc3)C2)nc1C (centres undefined), the AC50 [1] was 0.562 µM [falling, full curve, poor fit].

For O=C(NC(=S)NC1CCCCC1)c1ccccc1[N+](=O)[O-], the AC50 [1] was 7.94 µM [falling, partial curve, poor fit].

With CCC1=Nc2cc(C(=O)NCc3ccccc3Cl)ccc2Sc2ccc(C)cc21 the AC50 [1] was 3.98 µM [rising, full curve, poor fit] and the AC50 [2] was 7.08 µM [falling, partial curve].

For Nc1c(C(=O)NCCN2CCOCC2)c2nc3ccccc3nc2n1-c1ccc2c(c1)OCO2, the AC50 [1] was 0.731 µM [falling, partial curve, poor fit].

With Cc1ccc(C)c(-n2c(SCC(=O)O)nc3sc4c(c3c2=O)CCCC4)c1 the AC50 [1] was 35.5 µM [falling, single point].

In the case of COc1ccc(OC)c(NC(=O)CSc2nc3n[nH]c(C)c3c(=N)n2-c2cccc(Cl)c2C)c1, the AC50 [1] is reported as 35.5 µM [falling, single point].

For CN1CCN(CC(O)(c2ccc(Cl)cc2)c2ccc(Cl)cc2)CC1, the AC50 [1] was 35.5 µM [falling, single point].

With NC(=O)c1c(NC(=O)c2ccccc2C(=O)O)sc2c1CCCC2 the AC50 [1] was 35.5 µM [falling, single point].

In the case of CC1(C)Cc2ccccc2C(/C(=N\Nc2cccc(Cl)c2)C(N)=O)=N1, the AC50 [1] is reported as 14.6 µM [falling, partial curve, poor fit] and the AC50 [2] is reported as 5.17 µM [rising, full curve, poor fit].

For OC1(c2ccccc2F)CCN(Cc2nnc(-c3ccccc3)o2)CC1, the AC50 [1] was 2.82 µM [rising, partial curve, poor fit].

With COc1ccc(S(=O)(=O)N2CCC(n3cnc4cc(C(F)(F)F)ccc43)CC2)cc1 the AC50 [1] was 35.5 µM [falling, single point].

For CC1=NOC(=O)/C1=C\c1ccc(-c2ccc(Br)cc2)o1, the AC50 [1] was 35.5 µM [rising, single point].

For O=S1(=O)C=C(Sc2nc3ccccc3s2)c2ccccc21, the AC50 [1] was 6.51 µM [falling, partial curve, poor fit] and the AC50 [2] was 10.3 µM [rising, partial curve, poor fit].

With CC1(CC(=O)N/N=C/c2ccc(OCc3ccc(Cl)cc3Cl)cc2)OCCCO1 the AC50 [1] was 1.41 µM [falling, full curve, poor fit].

With CCN(CC)c1ccc(NC(=O)c2cc3c(OC)cccc3[nH]2)cc1 the AC50 [1] was 0.891 µM [falling, full curve].

With Cc1ccc(NC(=O)[C@H](NC(=O)[C@@H]2Cc3ccccc3CN2)c2ccccc2)c(C)c1 the AC50 [1] was 31.6 µM [falling, single point].

With COc1ccc(CCNC(=O)c2cc3sc(Cl)cc3n2C)cc1OC the AC50 [1] was 2.06 µM [rising, full curve, poor fit].

For COC(=O)c1cccc(Nc2c(-c3ccc(OC)cc3)nc3nc[nH]n23)c1, the AC50 [1] was 6.31 µM [falling, partial curve].

With C/C(CC(=O)Nc1cc(Cl)ccc1C)=N\NC(=O)C(=O)N1CCCC1 the AC50 [1] was 12.6 µM [falling, partial curve, poor fit].

For O=C(/C=C/c1ccc(Cl)cc1)NC1CC2CCC1C2 (centres undefined), the AC50 [1] was 14.1 µM [falling, single point].

With CCC(=O)N(Cc1cc2ccc(C)cc2[nH]c1=O)c1ccccc1OC the AC50 [1] was 0.562 µM [rising, partial curve, poor fit].

For Cc1nc(SCC(=O)N2CCN(C(=O)c3cccs3)CC2)c2c(C)c(C)sc2n1, the AC50 [1] was 0.461 µM [rising, full curve].

With O=C(Nc1ccc(-c2ccc3nncn3n2)cc1)C1CCCC1 the AC50 [1] was 35.5 µM [rising, single point].

In the case of CC1(C)NC(C)(C)/C(=C\c2cccs2)C(=O)C1=O, the AC50 [1] is reported as 35.5 µM [falling, single point].

In the case of O=C(Nc1nnc(-c2ccc(F)cc2)o1)c1cccc([N+](=O)[O-])c1, the AC50 [1] is reported as 5.62 µM [falling, full curve, poor fit].

With O=C(NCCN1CCOCC1)c1ccc(/C=C2\Sc3ccccc3N(Cc3ccccc3F)C2=O)cc1 the AC50 [1] was 10 µM [falling, partial curve, poor fit].

For O=C(Nc1ccccc1N1CCN(C(=O)c2ccccc2)CC1)c1cc(Br)ccc1Cl, the AC50 [1] was 11.2 µM [falling, partial curve].

For Cc1ccc2nc(SC(C(=O)Nc3ccc(F)cc3)c3ccccc3)[nH]c2c1 (centres undefined), the AC50 [1] was 6.51 µM [rising, single point].

With CCn1cc(Cl)c(C(=O)Nc2cccc(C(F)(F)F)c2)n1 the AC50 [1] was 0.112 µM [rising, full curve, poor fit].

With C=CCSc1nc2ccccc2c2nc(-c3ccccc3)nn12 the AC50 [1] was 15.8 µM [rising, partial curve, poor fit].

In the case of CCc1ccc(-c2cc(C(=O)Nn3cnnc3)c3ccccc3n2)cc1, the AC50 [1] is reported as 20.6 µM [falling, single point].

For CCN1N=C(c2ccccc2)Cn2c1nc1ccccc12, the AC50 [1] was 23.1 µM [falling, partial curve, poor fit] and the AC50 [2] was 10.3 µM [rising, partial curve, poor fit].

With CCc1nc(SCc2ccccc2)n[nH]1 the AC50 [1] was 7.94 µM [rising, full curve, poor fit].

With O=C(Nc1ccc(S(=O)(=O)Nc2nccs2)cc1)c1cccc(F)c1 the AC50 [2] was 35.5 µM [rising, partial curve, poor fit].

For Cc1cc(=O)oc2cc(OCC(=O)OCC(=O)Nc3ccc(C(C)C)cc3)ccc12, the AC50 [1] was 1.03 µM [rising, full curve, poor fit].

For COc1ccc(-c2[nH]ncc2CN(C)Cc2nonc2C)c(OC)c1, the AC50 [1] was 2.82 µM [falling, partial curve, poor fit].

For CC1(C)CC(=O)C=C(NCCN2CCNCC2)C1, the AC50 [1] was 23.1 µM [falling, single point].

For O=C(NC(=S)NCC1CCCO1)c1ccc(Cl)cc1Cl (centres undefined), the AC50 [1] was 8.2 µM [rising, partial curve, poor fit].

In the case of COc1cc(CC(=O)NCc2ccc3c(c2)OCO3)cc(OC)c1OC, the AC50 [1] is reported as 2.06 µM [falling, single point].

In the case of CCOc1ccc(/C(CCC(=O)O)=N/NC(=S)NCCc2ccccc2)cc1, the AC50 [2] is reported as 35.5 µM [falling, single point].

In the case of CC[C@]12c3[nH]c4cc(-c5ccco5)ccc4c3CCN1C(=O)[C@@H](CC(=O)NCCc1ccccn1)C[C@@H]2C(=O)N1CCN(C(=O)C2CC2)CC1, the AC50 [1] is reported as 20.6 µM [rising, partial curve].

With COc1ccc(OC)c(-n2nnnc2SCC(=O)Nc2ccc(C(=O)N3CCCCC3)cc2)c1 the AC50 [1] was 3.26 µM [falling, partial curve, poor fit].

For COc1ccccc1/C=C/C(=O)NCC(=O)N/N=C/c1ccc(C(=O)O)cc1, the AC50 [1] was 8.91 µM [falling, partial curve, poor fit].

In the case of Cc1cc(-n2nc(C)cc2C)n2ncc(-c3ccccc3)c2n1, the AC50 [1] is reported as 0.708 µM [rising, full curve].

In the case of COc1cccc(C(=O)NCCC2=CCCCC2)c1OC, the AC50 [1] is reported as 1.03 µM [rising, full curve, poor fit].

For COc1cccc(C(=O)Nc2ccc(NC(=O)c3ccco3)cn2)c1, the AC50 [1] was 10 µM [falling, partial curve, poor fit].

In the case of O=c1nc2c(-c3ccc(F)cc3Cl)n[nH]n2c2ccccc12, the AC50 [1] is reported as 5.62 µM [falling, partial curve].

For Cc1cc(C(=O)NNC(=S)Nc2cccc(C(F)(F)F)c2)nn1C, the AC50 [1] was 22.4 µM [rising, partial curve, poor fit].

With O=C(Nc1cccc(F)c1)c1ccc(S(=O)(=O)NCC2CCCO2)cc1 (centres undefined) the AC50 [1] was 15.8 µM [falling, partial curve, poor fit].

For Cc1nn(-c2ccccc2)c2nc(N)c(C(N)=O)cc12, the AC50 [1] was 2.51 µM [falling, partial curve, poor fit].

For COc1cccc(C(c2nnnn2Cc2ccccc2)N2CCN(C(=O)c3ccco3)CC2)c1OC (centres undefined), the AC50 [1] was 23.1 µM [rising, single point].

For CC(C)NC(=O)c1ccc(C(C)C)cc1, the AC50 [1] was 3.16 µM [falling, partial curve, poor fit].

For CCOc1ccccc1NC(=O)C(c1ccccc1)N1CCN(CC(=O)N2CCOCC2)CC1 (centres undefined), the AC50 [1] was 29.1 µM [rising, single point].
